From US20190112361A1 come the findings set out here.

By UniProt entry, the sequences of proteins in these tests, tags left out. Where a name states a change or a piece, a line headed by the entry shows the natural chain unless it says otherwise. Chains listed by the source or under a name are the forms on record and can include a tag or linker.
UniProt P10636: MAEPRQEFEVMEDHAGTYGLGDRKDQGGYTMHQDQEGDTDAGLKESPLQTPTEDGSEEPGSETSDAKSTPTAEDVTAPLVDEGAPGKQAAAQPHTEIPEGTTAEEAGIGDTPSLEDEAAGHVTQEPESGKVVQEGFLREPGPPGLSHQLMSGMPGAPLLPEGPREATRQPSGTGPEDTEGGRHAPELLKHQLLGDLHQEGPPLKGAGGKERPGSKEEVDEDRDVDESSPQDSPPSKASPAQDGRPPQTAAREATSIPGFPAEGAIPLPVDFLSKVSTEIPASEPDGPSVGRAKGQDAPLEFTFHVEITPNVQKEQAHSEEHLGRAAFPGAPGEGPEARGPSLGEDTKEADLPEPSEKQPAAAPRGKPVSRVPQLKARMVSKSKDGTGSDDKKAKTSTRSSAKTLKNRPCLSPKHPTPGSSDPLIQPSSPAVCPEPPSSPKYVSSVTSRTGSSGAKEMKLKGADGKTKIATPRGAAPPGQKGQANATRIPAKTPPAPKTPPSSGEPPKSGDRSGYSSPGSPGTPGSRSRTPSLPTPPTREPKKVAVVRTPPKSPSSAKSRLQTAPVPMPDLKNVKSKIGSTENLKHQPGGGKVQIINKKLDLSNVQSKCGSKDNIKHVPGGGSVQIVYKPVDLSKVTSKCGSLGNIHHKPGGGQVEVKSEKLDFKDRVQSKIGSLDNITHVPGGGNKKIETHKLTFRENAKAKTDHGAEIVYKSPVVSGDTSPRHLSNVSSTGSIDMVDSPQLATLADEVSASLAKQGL
human Tau monomer (recombinant 2N4R isoform, amino acids 2-441) (P10636, form named): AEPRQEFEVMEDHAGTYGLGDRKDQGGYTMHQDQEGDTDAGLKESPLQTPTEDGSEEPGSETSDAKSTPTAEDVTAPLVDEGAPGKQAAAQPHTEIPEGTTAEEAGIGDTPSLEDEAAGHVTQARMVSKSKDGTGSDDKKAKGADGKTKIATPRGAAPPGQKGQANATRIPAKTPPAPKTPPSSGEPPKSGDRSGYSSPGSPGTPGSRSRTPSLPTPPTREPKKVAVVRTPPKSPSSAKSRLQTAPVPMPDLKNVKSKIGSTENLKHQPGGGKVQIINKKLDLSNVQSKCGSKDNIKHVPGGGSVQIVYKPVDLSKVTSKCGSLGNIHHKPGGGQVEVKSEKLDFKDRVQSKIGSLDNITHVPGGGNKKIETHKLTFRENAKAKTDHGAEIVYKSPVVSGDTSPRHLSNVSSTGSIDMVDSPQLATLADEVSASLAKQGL

No constants are given. Whether binding was seen depends on the method and setting. Some entries that bind do so weakly or less than the wild type.

In assay [1] the target is full-length human Tau (flTau) (human) (UniProt P10636). Briefly: direct ELISA, flTau coated at 1 µg/mL, hybridoma supernatant dilutions.
Assay [2] addresses phosphorylated Tau (pTau) (human) (UniProt P10636). Briefly: direct ELISA, pTau coated at 1 µg/mL, hybridoma supernatant dilutions.
The target in assay [3] is human Tau monomer (recombinant 2N4R isoform, amino acids 2-441) (human) (UniProt P10636). Briefly: capture ELISA, antibody on anti-IgG plate, biotinylated monomeric Tau titrated.
Assay [4] concerns the target 46-60 (human) (UniProt P10636). Briefly: ELISA on Tau peptides (Example 8).

B1: 52F6-F11 (antibody, V domains shown)
VH: QVQLQQSGTELAKPGASVKLSCKASGYTFTHYWMHWIKQRPGQGLEWIGYIYPTNDYTKYNQNFRDKATLTADESSNSAYMQLNSLTYEDSAVYYCARAGNRVFDFWGQGTTLTVSS
VL: QAVVTQESALTTSPGETVTLTCRSSTGAVTTSNFANWVQEKPDHLFTGLIGGTNNRAPGVPARFSGSLIGDKAALTITGAQTEDEAIYFCALWYSNLWVFGGGTKLTVL
As for B1, the binding result in assay [1], in assay [2] and in assay [3] was “binds” in each case.

B2: 89F4-A1 (antibody, mouse IgG2a, V domains shown)
VH: EVQLVESGGGLVQPKGSLKLSCAASGFTFNTYAMNWVRQAPGKGLEWVARIRSKSNNYAAYFADSVKDRFTISRDDSQTMLYLQMNNLKSEDTAMYYCVSGGNYVPFAYWGQGTLVTVSA
VL: NIMMTQSPSSLAVSAGEKVTMSCKSSQSVFYSSEQRNYLAWYQQKPGQSPKLLISWASTRESGVPDRFTGSGSGTDFTLTISSVQGEDLAVYYCHQYLSSFTFGSGTKLEIK
In the case of B2, the binding entry in assay [4] is “no binding (tested: not shown on the sheet)”.

B3: 3A4-H4 (antibody, mouse IgG2a, V domains shown)
VH: EVQLVESGGDLVKPGGSLKLSCAASGFTFSSYGMSWVRQTPDKRLEWVATISSGGTYTYYPDSVKGRFTISRDNAKNTLYLQMSSLKSEDTAMYFCATSYDGAMDYWGQGTSVTVSS
VL: DVLMTQTPLSLPVSLGDQASISCRSSQNIVHSNGNTYLEWYLQKPGQSPKLLIYKVSNRFSGVPDRFSGSGSGTDFTLKISRVEAEDLGVYYCFQGTLVPWTFGGGTKLEIK
For B3, in assay [4], the binding entry is on record as “no binding (tested: not shown on the sheet)”.

B4: 123E9-A1 (antibody, mouse IgG2a, V domains shown)
VH: EVQLQQSGPELVKPGASVKMSCKASGYTFTDYYMKWVKQSHGKSLEWIGDIDPNNGGTSYNQKFKGKATLTVDKSSSTAYMQLNSLTSEDSAVYYCARSAGFGDSFSFWGLGTLVTVSA
VL: DVLMTQTPLSLPVSLGDQASISCRSSQSIVHSNGNTYLEWYLQKPGQSPKLLIYKVSNRFSGVPDRFSGSGSGTDFTLKISRVEAEDLGFYYCFQGSHVPPTFGGGTKLEIK
Consider B4, for which the binding entry in assay [4] is given as “no binding (tested: not shown on the sheet)”.

B5: 37D3-H9 (antibody, mouse IgG2a, V domains shown)
VH: EVQLVESGGDLAKPGGSLKLSCTASGLIFRSYGMSWVRQTPDKRLEWVATINSGGTYTYYPDSVKGRFTISRDNAKNTLYLQMSSLKSEDTAMYYCANSYSGAMDYWGQGTSVTVSS
VL: DDLLTQTPLSLPVSLGDPASISCRSSQSIVHSNGNTYFEWYLQKPGQSPKLLIYKVSNRFSGVPDRFSGSGSGTDFTLKISRVEAEDLGVYYCFQGSLVPWTFGGGTKLEIK
B5: the binding entry in assay [4] is “no binding (tested: not shown on the sheet)”.

B6: 19H6-F7 (antibody, mouse IgG2a, V domains shown)
VH: EVQLVESGGDLVKPGGSLKLSCAASGFTFSSYGMSWVRQTPDKRLEWVATISSGGTYTYYPDSVKGRFTISRDNAKNTLYLQMSSLKSEDTAMYYCAPSYDGAMDYWGQGTSVTVSS
VL: DVLMTQTPLSLPVSLGDQASISCRSSQSIVHSNGNTYLEWYLQKPGQSPKLLIYKVSNRFSGVPDRFSGSGSGTDFTLKISRVEAEDLGVYYCFQGSLVPWTFGGGTKLEIK
Regarding B6, in assay [4], the binding result is reported as “no binding (tested: not shown on the sheet)”.
